Source: article PMC4598174
No constants are given. Whether binding was seen depends on the method and setting. Binding calls can cover weak binding; strength is not graded here.

Columns and labels:
AtTTG1 (Arabidopsis) = target: T1, AtTTG1 (Arabidopsis) (UniProt Q9XGN1); experiment: two-hybrid; Matchmaker Gold Y2H System (Clontech); pGADT7 (AD) SsMYB3 fusion co-transformed with pGBKT7 (BD) fusions into S. cerevisiae Y2HGold; selection on SD-Leu-Trp, then growth on SD-Ade-His-Leu-Trp
T1 sequence: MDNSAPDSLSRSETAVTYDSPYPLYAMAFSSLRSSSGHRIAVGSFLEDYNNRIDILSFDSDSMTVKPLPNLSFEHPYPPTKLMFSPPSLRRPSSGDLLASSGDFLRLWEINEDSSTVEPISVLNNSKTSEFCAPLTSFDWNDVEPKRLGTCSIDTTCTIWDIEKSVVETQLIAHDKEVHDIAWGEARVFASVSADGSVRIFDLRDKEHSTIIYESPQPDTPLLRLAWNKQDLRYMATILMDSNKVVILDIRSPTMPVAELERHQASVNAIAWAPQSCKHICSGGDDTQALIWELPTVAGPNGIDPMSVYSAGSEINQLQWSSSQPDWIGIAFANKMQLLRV

[1] = target: T2, AtTT8 MYB-interaction region (aa1-204) (Arabidopsis) (UniProt Q9FT81); experiment: as above
T2 sequence: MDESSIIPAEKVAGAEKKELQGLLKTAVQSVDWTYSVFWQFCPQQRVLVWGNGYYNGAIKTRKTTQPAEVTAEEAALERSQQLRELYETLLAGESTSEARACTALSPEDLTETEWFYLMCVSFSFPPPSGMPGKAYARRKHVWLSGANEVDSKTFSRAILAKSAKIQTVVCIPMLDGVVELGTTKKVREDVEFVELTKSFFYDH

binding (AtTTG1 (Arabidopsis)): binds | binding [1]: binds
Substance: SsMYB3 (from UniProt A5A383)
